# Reference: the supplement of paper PMC3682954
# Where “and” joins values, the source holds several entries; their conditions need not be identical. Equal entries are not always repeated. Structures can show the parent of a compound that is named as a salt. ± gives the standard deviation of the averaged measurements. The list shows a part of the results. Many values rest on one well or one pass, so single values are uncertain.
# Tested on: RAW 264.7
# Assay: HMGB1-induced TNF-alpha production relative to HMGB1-stimulated control; higher = more TNF-alpha secretion (less inhibition)
# Conditions: stimulus: HMGB1 5 ug/ml, 18 h
# [1] = compound concentration: 1 ug/ml
Structure (SMILES),HMGB1-induced TNF-alpha production (compound concentration: 3 uM),HMGB1-induced TNF-alpha production [1]
O=C(O[C@@H]1Cc2c(O)cc(O)cc2O[C@@H]1c1cc(O)c(O)c(O)c1)c1cc(O)c(O)c(O)c1 [Epigallocatechin gallate],107%,
CCOC(=O)[C@H](CCc1ccccc1)N[C@@H](C)C(=O)N1[C@H](C(=O)O)C[C@H]2CCCC[C@@H]21 [Trandolapril],108%,
[Cl-].[Li+] [Lithium Chloride],74.5%,
CCC(=O)NS(=O)(=O)c1ccc(-c2c(-c3ccccc3)noc2C)cc1,65.7%,
CCN(CC)CCNC(=O)c1ccc(NC(C)=O)cc1,83.6%,
CCN(CC)CCNC(=O)c1ccc(NC(C)=O)cc1 [N-Acetylprocainamide hydrochloride],82.1%,
"CCCCCCN(CCCCCC)C(=O)Cc1c(-c2ccc(F)cc2)[nH]c2ccccc12 [N,N-Dihexyl-2-(4-fluorophenyl)indole-3-acetamide]",79.6%,
CC(=O)NNC(=O)N1Cc2ccccc2Oc2ccc(Cl)cc21,124%,
CNC[C@H](O)c1cccc(O)c1,56%,
CNC[C@H](O)c1cccc(O)c1 [Phenylephrine hydrochloride],79.5%,
Cc1ccccc1/C=C/C1=NCCN1 [Metrazoline oxalate],85.2%,
CC(=O)O[C@]1(C(C)=O)CC[C@H]2[C@@H]3C=C(C)C4=CC(=O)CC[C@@H]4[C@H]3CC[C@@]21C [Nomegestrol acetate],115%,
COc1ccc(CCN(C)CCc2ccc(OC)c(OC)c2)cc1OC [YS-035 hydrochloride],105%,
CC[N+](CC)(CC)CC [Tetraethylammonium chloride],101%,
Cc1cccc(-c2[nH]c(C(C)(C)C)nc2-c2ccc3nccnc3c2)n1,108%,
CC[C@@]1(O)C(=O)OCc2c1cc1n(c2=O)Cc2cc3cc(O)ccc3nc2-1 [10-Hydroxycamptothecin],58.9%,
CC[C@@]1(O)C(=O)OCc2c1cc1n(c2=O)Cc2cc3cc(O)ccc3nc2-1,82.1%,
NS(=O)(=O)c1cc2c(cc1Cl)N=C(CSCc1ccccc1)NS2(=O)=O,85.1%,
NS(=O)(=O)c1cc2c(cc1Cl)N=C(CSCc1ccccc1)NS2(=O)=O [Benzthiazide],119%,
Clc1ccc2c(c1)N=C(N1CCNCC1)c1ccccc1N2 [N-Desmethylclozapine],73.6%,
CC(=O)OC/C=C(C)/C=C/C=C(C)/C=C/C1=C(C)CCCC1(C)C [Vitamin A acetate],85.9%,

Structure (SMILES),HMGB1-induced TNF-alpha production (compound concentration: 3 uM),HMGB1-induced TNF-alpha production [1]
CC(=O)OC/C=C(C)/C=C/C=C(C)/C=C/C1=C(C)CCCC1(C)C,87.4%,
O=C1C(CC[S+]([O-])c2ccccc2)C(=O)N(c2ccccc2)N1c1ccccc1 (stereo not drawn) [Sulfinpyrazone],53.7%,
O=C1C(CC[S+]([O-])c2ccccc2)C(=O)N(c2ccccc2)N1c1ccccc1 (stereo not drawn),95.1%,
O=C1NC(=O)/C(=C/c2ccc(-c3ccc(F)cc3O)o2)S1,113%,
CC(=O)Oc1cc(C(F)(F)F)ccc1C(=O)O [Triflusal],61.8%,
N=c1ccn2c(n1)O[C@H]1[C@H](O)[C@@H](CO)O[C@H]12 [Ancitabine hydrochloride],110%,
N=c1ccn2c(n1)O[C@H]1[C@H](O)[C@@H](CO)O[C@H]12,102 ± 2.5%,
N=c1ccn2c(n1)O[C@H]1[C@H](O)[C@@H](CO)O[C@H]12 [Cyclocytidine],77.6%,
C[N+](C)(C)CCO.[Br-] [Choline bromide],87.9%,
CCCCCCCC/C=C\CCCCCCCC(=O)NCc1ccc(O)c(OC)c1 [Olvanil],105%,
O=c1[nH]cc(F)c(=O)[nH]1 [5-fluorouracil],76.4%,
O=c1[nH]cc(F)c(=O)[nH]1,87.1 ± 6.4%,
O=c1[nH]cc(F)c(=O)[nH]1 [5-Fluorouracil],102 ± 17%,
C[C@]12C=CC(=O)C=C1CC[C@@H]1[C@@H]2[C@@H](O)C[C@@]2(C)[C@H]1CC[C@]2(O)C(=O)CO [Prednisolone],36.7 ± 4.7%,
C[C@]12C=CC(=O)C=C1CC[C@@H]1[C@@H]2[C@@H](O)C[C@@]2(C)[C@H]1CC[C@]2(O)C(=O)CO,39.3%,
CC(C)Cc1ccc([C@H](C)C(=O)O)cc1 [S(+)-Ibuprofen],110%,
CC(C)Cc1ccc([C@H](C)C(=O)O)cc1 [S-(+)-ibuprofen],125%,
CS(=O)(=O)c1ccc([C@@H](O)[C@@H](CO)NC(=O)C(Cl)Cl)cc1 [Thiamphenicol],72.8%,
CS(=O)(=O)c1ccc([C@@H](O)[C@@H](CO)NC(=O)C(Cl)Cl)cc1,124%,
O=C(O)Cc1ccccc1Nc1c(Cl)cccc1Cl [Diclofenac],95.9%,
O=C(O)Cc1ccccc1Nc1c(Cl)cccc1Cl [Diclofenac sodium],102 ± 9.5%,

Structure (SMILES),HMGB1-induced TNF-alpha production (compound concentration: 3 uM),HMGB1-induced TNF-alpha production [1]
C[C@@H](c1ncncc1F)[C@](O)(Cn1cncn1)c1ccc(F)cc1F,99.8%,
CN1CCN(CCCN2c3ccccc3Sc3ccc(S(=O)(=O)N(C)C)cc32)CC1 [Thioproperazine dimesylate],64.4%,
Cc1cc2c(C(C)C)c(O)c(O)c(/C=N/NC(=O)c3ccoc3C)c2c(O)c1-c1c(C)cc2c(C(C)C)c(O)c(O)c(/C=N/NC(=O)c3ccoc3C)c2c1O,,70.4%
COC(=O)C1=C(C)NC(C)=C(C(=O)OC)C1c1ccccc1[N+](=O)[O-] [Nifedipine],88.1 ± 30%,
COC(=O)C1=C(C)NC(C)=C(C(=O)OC)C1c1ccccc1[N+](=O)[O-],89.3 ± 18%,
CNC(=O)[C@H]1O[C@@H](n2cnc3c(NCc4ccc(N)cc4)ncnc32)[C@H](O)[C@@H]1O,92.2%,
COc1cc2c(cc1O)CC[C@@H]1[C@@H]2CC[C@]2(C)[C@@H](O)CC[C@@H]12 [2-methoxyestradiol],130%,
Clc1ccccc1CN1CCc2sccc2C1,87% and 91.6%,
Clc1ccccc1CN1CCc2sccc2C1 [Ticlopidine hydrochloride],54.2%,
Clc1ccccc1CN1CCc2sccc2C1 [Ticlopidine],99.2%,
CCN(CC)CCOC(=O)C1(c2ccc([N+](=O)[O-])cc2)CCCC1 [Nitrocaramiphen hydrochloride],63.9%,
Nc1ccc(O)c(C(=O)O)c1,94.5%,
Nc1ccc(O)c(C(=O)O)c1 [Mesalamine],118%,
Nc1ccc(O)c(C(=O)O)c1 [5-Aminosalicylic acid],98%,
Nc1ccc(O)c(C(=O)O)c1 [5-Amino-2-hydroxy-benzoic acid],106%,
Cc1cc(C(C)(C)CC(C)(C)C)ccc1OCCOCC[N+](C)(C)Cc1ccccc1,77.5%,
Cc1cc(C(C)(C)CC(C)(C)C)ccc1OCCOCC[N+](C)(C)Cc1ccccc1 [Methyl benzethonium chloride],93.1%,
O=C1NC(=O)/C(=C\c2ccc3nccnc3c2)S1,80.3%,
Cc1cc(NC(=O)C2=C(O)c3ccccc3S(=O)(=O)N2C)no1 [Isoxicam],64.3%,
Cc1cc(NC(=O)C2=C(O)c3ccccc3S(=O)(=O)N2C)no1,90.3%,
Cc1cc(C)cc(OCC(=O)N/N=C/c2c(O)c(O)c(C(C)C)c3cc(C)c(-c4c(C)cc5c(C(C)C)c(O)c(O)c(/C=N/NC(=O)COc6cc(C)cc(C)c6)c5c4O)c(O)c23)c1,,92.7%

Structure (SMILES),HMGB1-induced TNF-alpha production (compound concentration: 3 uM),HMGB1-induced TNF-alpha production [1]
CN(C)CCCN1c2ccccc2CCc2ccc(Cl)cc21,84.6%,
CN(C)CCCN1c2ccccc2CCc2ccc(Cl)cc21 [Clomipramine hydrochloride],62.9 ± 7.3%,
CO[C@@]1(NC(=O)C2SC(=C(C(N)=O)C(=O)O)S2)C(=O)N2C(C(=O)O)=C(CSc3nnnn3C)CS[C@@H]21 (stereo partly drawn) [Cefotetan],89.3%,
C#C[C@]1(OC(C)=O)CC[C@H]2[C@@H]3CCC4=C[C@@H](OC(C)=O)CC[C@@H]4[C@H]3CC[C@@]21C,84.5%,
C#C[C@]1(OC(C)=O)CC[C@H]2[C@@H]3CCC4=C[C@@H](OC(C)=O)CC[C@@H]4[C@H]3CC[C@@]21C [Ethynodiol diacetate],112%,
O=C(Nc1ccn([C@@H]2O[C@H](CO)[C@@H](O)[C@H]2O)c(=O)n1)c1ccccc1 [N4-Benzoylcytidine],,81.3%
O=C(O[C@H]1[C@H](Oc2ccccc2COC(=O)C2(O)C=CCCC2=O)O[C@H](CO)[C@@H](O)[C@@H]1O)c1ccccc1 (stereo partly drawn),107%,
Nc1ccc(S(=O)(=O)Nc2ncccn2)cc1 [Sulfadiazine],85.9 ± 21%,
Nc1ccc(S(=O)(=O)Nc2ncccn2)cc1,95.5%,
COc1ccc(-c2coc3ccc(OC4OC(COC(C)=O)C(OC(C)=O)C(OC(C)=O)C4OC(C)=O)cc3c2=O)cc1 (stereo not drawn),,82.4%
CO[C@@]1(NC(=O)C(C(=O)O)c2ccc(O)cc2)C(=O)N2C(C(=O)O)=C(CSc3nnnn3C)CO[C@@H]21 (stereo partly drawn) [Moxalactam disodium salt],123%,
CO[C@@]1(NC(=O)C(C(=O)O)c2ccc(O)cc2)C(=O)N2C(C(=O)O)=C(CSc3nnnn3C)CO[C@@H]21 (stereo partly drawn),89.6%,
C#C[C@]1(O)CC[C@H]2[C@@H]3CCC4=CC(=O)CC[C@@H]4[C@H]3CC[C@@]21C [Norethindrone],78.4 ± 6.3%,
C#C[C@]1(O)CC[C@H]2[C@@H]3CCC4=CC(=O)CC[C@@H]4[C@H]3CC[C@@]21C,73.6%,
O=C(O)CNC(=O)c1ccccc1 [Hippuric acid],,74.5%
COc1cc2c(CCNC(C)=O)c[nH]c2cc1O [6-Hydroxymelatonin],90.5%,
CNc1ncnc2c1ncn2[C@H]1C[C@H](OP(=O)(O)O)[C@@H](COP(=O)(O)O)O1,109%,
COc1ccc(CN(CCN(C)C)c2ccccn2)cc1,77.3%,
COc1ccc(CN(CCN(C)C)c2ccccn2)cc1 [Mepyramine],92.5%,
COc1ccc(CN(CCN(C)C)c2ccccn2)cc1 [Pyrilamine maleate],78.1 ± 38%,

# Exported with bars between the fields: entries from further up.
Structure (SMILES) | HMGB1-induced TNF-alpha production (compound concentration: 3 uM) | HMGB1-induced TNF-alpha production [1]
Cc1cc(NC(=O)C2=C(O)c3ccccc3S(=O)(=O)N2C)no1 [Isoxicam] | 64.3% | 
Cc1cc(NC(=O)C2=C(O)c3ccccc3S(=O)(=O)N2C)no1 | 90.3% | 
Cc1cc(C)cc(OCC(=O)N/N=C/c2c(O)c(O)c(C(C)C)c3cc(C)c(-c4c(C)cc5c(C(C)C)c(O)c(O)c(/C=N/NC(=O)COc6cc(C)cc(C)c6)c5c4O)c(O)c23)c1 |  | 92.7%
CN(C)CCCN1c2ccccc2CCc2ccc(Cl)cc21 | 84.6% | 
CN(C)CCCN1c2ccccc2CCc2ccc(Cl)cc21 [Clomipramine hydrochloride] | 62.9 ± 7.3% | 
CO[C@@]1(NC(=O)C2SC(=C(C(N)=O)C(=O)O)S2)C(=O)N2C(C(=O)O)=C(CSc3nnnn3C)CS[C@@H]21 (stereo partly drawn) [Cefotetan] | 89.3% | 
C#C[C@]1(OC(C)=O)CC[C@H]2[C@@H]3CCC4=C[C@@H](OC(C)=O)CC[C@@H]4[C@H]3CC[C@@]21C | 84.5% | 
C#C[C@]1(OC(C)=O)CC[C@H]2[C@@H]3CCC4=C[C@@H](OC(C)=O)CC[C@@H]4[C@H]3CC[C@@]21C [Ethynodiol diacetate] | 112% | 
O=C(Nc1ccn([C@@H]2O[C@H](CO)[C@@H](O)[C@H]2O)c(=O)n1)c1ccccc1 [N4-Benzoylcytidine] |  | 81.3%
O=C(O[C@H]1[C@H](Oc2ccccc2COC(=O)C2(O)C=CCCC2=O)O[C@H](CO)[C@@H](O)[C@@H]1O)c1ccccc1 (stereo partly drawn) | 107% | 
Nc1ccc(S(=O)(=O)Nc2ncccn2)cc1 [Sulfadiazine] | 85.9 ± 21% | 
Nc1ccc(S(=O)(=O)Nc2ncccn2)cc1 | 95.5% | 
COc1ccc(-c2coc3ccc(OC4OC(COC(C)=O)C(OC(C)=O)C(OC(C)=O)C4OC(C)=O)cc3c2=O)cc1 (stereo not drawn) |  | 82.4%
CO[C@@]1(NC(=O)C(C(=O)O)c2ccc(O)cc2)C(=O)N2C(C(=O)O)=C(CSc3nnnn3C)CO[C@@H]21 (stereo partly drawn) [Moxalactam disodium salt] | 123% | 
CO[C@@]1(NC(=O)C(C(=O)O)c2ccc(O)cc2)C(=O)N2C(C(=O)O)=C(CSc3nnnn3C)CO[C@@H]21 (stereo partly drawn) | 89.6% | 
C#C[C@]1(O)CC[C@H]2[C@@H]3CCC4=CC(=O)CC[C@@H]4[C@H]3CC[C@@]21C [Norethindrone] | 78.4 ± 6.3% | 
C#C[C@]1(O)CC[C@H]2[C@@H]3CCC4=CC(=O)CC[C@@H]4[C@H]3CC[C@@]21C | 73.6% | 
O=C(O)CNC(=O)c1ccccc1 [Hippuric acid] |  | 74.5%
COc1cc2c(CCNC(C)=O)c[nH]c2cc1O [6-Hydroxymelatonin] | 90.5% | 
CNc1ncnc2c1ncn2[C@H]1C[C@H](OP(=O)(O)O)[C@@H](COP(=O)(O)O)O1 | 109% | 
